# Laboratory results from PubChem BioAssay AID1671190 (National Center for Advancing Translational Sciences (NCATS), 2021).
# Protein sequences, listed by entry. Tags and fused reporters are not part of them. Lines headed by an entry give the natural chain unless they say otherwise; changes in a name come on top.
# UniProt P18054: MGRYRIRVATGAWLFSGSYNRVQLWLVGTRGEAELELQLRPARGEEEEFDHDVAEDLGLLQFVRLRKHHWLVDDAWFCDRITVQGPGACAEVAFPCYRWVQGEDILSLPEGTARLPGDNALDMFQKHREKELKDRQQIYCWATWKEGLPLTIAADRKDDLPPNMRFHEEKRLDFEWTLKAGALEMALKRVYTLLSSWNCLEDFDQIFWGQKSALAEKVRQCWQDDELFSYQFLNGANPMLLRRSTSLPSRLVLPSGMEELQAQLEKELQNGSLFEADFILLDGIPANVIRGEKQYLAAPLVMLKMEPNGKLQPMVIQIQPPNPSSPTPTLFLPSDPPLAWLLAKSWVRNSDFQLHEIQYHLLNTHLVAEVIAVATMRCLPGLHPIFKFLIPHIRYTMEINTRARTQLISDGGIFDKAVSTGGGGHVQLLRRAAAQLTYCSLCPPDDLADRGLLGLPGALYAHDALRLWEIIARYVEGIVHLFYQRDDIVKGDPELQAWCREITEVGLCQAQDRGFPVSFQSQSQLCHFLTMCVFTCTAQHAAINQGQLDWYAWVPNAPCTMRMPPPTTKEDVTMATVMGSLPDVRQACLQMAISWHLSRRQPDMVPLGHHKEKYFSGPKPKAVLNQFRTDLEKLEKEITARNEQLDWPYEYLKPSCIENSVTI
# Among all 580,000 compounds or so, about 6,100 (1.1%) were called active. Inconclusive results, whose numbers are uncertain, are shown with a selection of clear calls. Calls follow the shape of the dose curve; as a rule, active = well fitted inhibition curve with a large enough effect; inconclusive = small, poorly fitted or top-dose-only effect, or another doubt; inactive = no such curve, though single readings can be large or run the other way. Where the call is inconclusive, the potency comes from a doubtful curve fit.
# Target: Polyunsaturated fatty acid lipoxygenase ALOX12 (Homo sapiens) (UniProt P18054)
# Test: Primary qHTS assay for inhibitors of human arachidonate 12S-lipoxygenase (ALOX12): Round 2
# Details: purified 12hLO, xylenol orange hydroperoxide absorbance; activity change, negative = inhibition: at 108 µM (top of the series) unless noted
# Outline: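 Purified human 12hLO (150 nM final) in 25 mM Hepes, 0.01% Triton X-100, pH 7.0 was preincubated 15 min at room temperature with compound. Then 40 uM arachidonic acid was added, 30 min. Hydroperoxide was read by Fe-XO absorbance ratio 573/405 nm.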
# % is scaled to controls: 0 for no effect and ±100 for the full control effect; potency is read from the fitted curve at half-maximal effect.
Structure (SMILES),"activity change, negative = inhibition",Potency
CCOC(=O)C[C@H]1c2ccccc2S(=O)(=O)N1Cc1cccc(C(F)(F)F)c1,inactive: -2.65%,–
O=C(Cc1ccc(F)cc1)N1CCC2(CC1)NC(=O)N(c1ccc(F)cc1)N2,–,"inconclusive: 1.78 µM [inhibitor, full curve, poor fit]"
COc1cccc(OCC(O)CN2CCN(c3ccccn3)CC2)c1 (stereo not drawn),inactive: -27.9%,–
C=CCNC(=O)CSc1ncc(-c2ccc(F)cc2)o1,–,"inconclusive: 56.2 µM [inhibitor, partial curve, poor fit]"
CN(C)c1ccc(-c2cc([C@H]3[C@@H]4C=CCC[C@@]4(C)C(=O)N3Cc3ccccc3)ccc2F)cc1,–,"inconclusive: 89.1 µM [inhibitor, partial curve, poor fit]"
O=C(COC(=O)c1ccc(Cl)nc1)Nc1ccc(Cl)cc1,–,"inconclusive: 89.1 µM [inhibitor, single point]"
CCc1cccc(C)c1NC(=O)Cn1nc(C(=O)O)c2ccccc2c1=O,–,active: 15.8 µM
CCN1CCN(CC(=O)Nc2ccc(N(C)C)cc2)CC1,–,"inconclusive: 4.47 µM [inhibitor, full curve]"
CCOC(=O)C1=C(C)N(c2ccc(OCC)cc2)C(=O)/C1=C\c1ccco1,–,"inconclusive: 44.7 µM [inhibitor, partial curve, poor fit]"
CC(=O)Nc1ccc(S(=O)(=O)N2CCN=C2SCc2ccc(F)cc2)cc1,–,"inconclusive: 126 µM [inhibitor, single point]"
CCN(Cc1ccc(OC)c(F)c1)C(=O)C1CCCO1 (stereo not drawn),–,"inconclusive: 39.8 µM [inhibitor, partial curve, poor fit]"
COCCCNC(=O)/C(C#N)=C/c1c(N2CCN(C)CC2)nc2c(C)cccn2c1=O,inactive: -10.7%,–
CC(=O)Nc1ccc(NC(=O)C2CCN(S(=O)(=O)c3cccc4nonc34)CC2)cc1,–,"inconclusive: 126 µM [inhibitor, partial curve, poor fit]"
Cc1nc2ccc(Cl)cc2cc1C(=O)N1CCN(CC(=O)N2CCCC2)CC1,inactive: -15.3%,–
CC(C)(C)c1ccc(Oc2nc3ccccn3c(=O)c2/C=C(\C#N)c2nc3ccccc3[nH]2)cc1,inactive: -13.4%,–
CNC(=O)CCn1ncc2cc(OCc3ccccc3-c3cccc(OC)c3)ccc21,–,"inconclusive: 56.2 µM [inhibitor, partial curve]"
O=Cc1s/c(=N\S(=O)(=O)c2ccccc2)n(CCCCl)c1Cl,–,"inconclusive: 31.6 µM [inhibitor, partial curve, poor fit]"
O=C(CCC(=O)N1CC2CCCN2c2ccccc21)NCc1ccccc1 (stereo not drawn),–,"inconclusive: 158 µM [inhibitor, partial curve, poor fit]"
O=C(NC(=S)Nc1ccc(N2CCOCC2)cc1)c1cccc(Cl)c1,–,"inconclusive: 50.1 µM [inhibitor, partial curve]"
COc1ccc(OC)c(NC(=O)c2ncoc2-c2ccc(C)o2)c1,inactive: -2.5%,–
O=C(N[C@H](CO)Cc1ccccc1)c1nc(-c2cccc3[nH]ccc23)no1,–,"inconclusive: 141 µM [inhibitor, partial curve, poor fit]"
Cc1cc(NC(=O)CN2C(=O)N(C)C3(CCCCC3)C2=O)ccc1Br,–,"inconclusive: 89.1 µM [inhibitor, partial curve, poor fit]"

Structure (SMILES),"activity change, negative = inhibition",Potency
COc1cccc([S+](=O)([O-])NC[C@@H]2CC[C@H]3C[C@@H]2C3(C)C)c1,inactive: -9.56% [at 176 µM],–
OC(CCN1CCC2CCC(C2)C1)c1ccc(Br)cc1 (stereo not drawn),–,"inconclusive: 89.1 µM [inhibitor, partial curve, poor fit]"
CC(=O)Nc1c(-c2ccccc2)nc2ccc(Cl)cn12,inactive: 0%,–
O=[N+]([O-])c1ccc(N=Cc2c(O)ccc3ccccc23)cc1,–,"inconclusive: 31.6 µM [inhibitor, partial curve]"
Oc1ccc(Cc2ccccc2)c2cccnc12,–,"inconclusive: 31.6 µM [inhibitor, partial curve, poor fit]"
Cc1nn(-c2ccccc2)c(=O)c2ccccc12,inactive: 2.31%,–
CCC(C)c1ccc(NC(=O)NCCN2CCCCC2)cc1 (stereo not drawn),–,"inconclusive: 112 µM [inhibitor, single point]"
O[C@H]1CC[C@@H](Cc2cc(CN3CCOCC3)on2)O[C@@H]1CNCc1ccccc1Cl,–,"inconclusive: 35.5 µM [inhibitor, partial curve, poor fit]"
O=C(Cn1nc2c(cc1=O)CCCC2)NCc1nnc2ccccn12,inactive: -5.59%,–
Cc1ccc([C@@H]2[C@@H]3C(=O)N(c4ccccc4)C(=O)[C@@H]3[C@]3(Cc4ccccc4)C(=O)N(CC4CC4)CC(=O)N23)o1,–,"inconclusive: 0.251 µM [inhibitor, full curve, poor fit]"
Cc1cn2nc(C(=O)NC3CCCCCC3)cc2c(N2CCCC2)n1,inactive: 34.2%,–
N#C/C(=C\c1cccc2ccccc12)c1nc2ccccc2[nH]1,–,"inconclusive: 17.8 µM [inhibitor, partial curve]"
COc1ccc(S(=O)(=O)N(C)C[C@@H]2Oc3ccc(NC(=O)Nc4c(C)noc4C)cc3C(=O)N([C@H](C)CO)C[C@@H]2C)cc1,–,"inconclusive: 35.5 µM [inhibitor, partial curve, poor fit]"
CC(=O)NC1C(=O)N(CCN2CCOCC2)c2ccc(Br)cc21 (stereo not drawn),–,active: 31.6 µM
O=C(NCCCN1CCOCC1)c1ccc2c(=O)n(-c3ccc(F)c(Cl)c3)c(=S)[nH]c2c1,inactive: -29%,–
O=C(Cn1cnnn1)N1CCC2(CCCNC2=O)C1 (stereo not drawn),inactive: 2.01%,–
CC1CCCCN1C(=O)C(NC(=O)c1cccs1)C1CCN(C(=O)C2CCCC2)CC1 (stereo not drawn),inactive: -5.28%,–
CSCCC(NC(=O)CCC(=O)OCC(=O)[C@@]1(O)CCC2[C@@H]3CCC4=CC(=O)C=C[C@]4(C)C3[C@@H](O)C[C@@]21C)C(=O)O (stereo partly drawn),inactive: -5.46%,–
CCCCNC(=O)c1nc2ccc(Br)cc2nc1-c1cccc(Br)c1,–,"inconclusive: 141 µM [inhibitor, single point]"
CN1CCOc2nc(-c3ccc(Oc4ccccc4)cc3)ncc2C1=O,–,"inconclusive: 112 µM [inhibitor, partial curve, poor fit]"
COc1ccc(C(=O)/C=C/c2ccc(O)cc2)c(O)c1C/C=C(\C)CCC=C(C)C,–,"inconclusive: 79.4 µM [inhibitor, partial curve, poor fit]"

# 3 entries already listed, ordered by SMILES length, largest number first:
Structure (SMILES),"activity change, negative = inhibition",Potency
CC1CCCCN1C(=O)C(NC(=O)c1cccs1)C1CCN(C(=O)C2CCCC2)CC1 (stereo not drawn),inactive: -5.28%,–
N#C/C(=C\c1cccc2ccccc12)c1nc2ccccc2[nH]1,–,"inconclusive: 17.8 µM [inhibitor, partial curve]"
O=C(Cn1cnnn1)N1CCC2(CCCNC2=O)C1 (stereo not drawn),inactive: 2.01%,–
